Reference: PubChem BioAssay (NCATS)
The shares of active, inactive and inconclusive entries below differ from those in the screen. For some assays here: Potencies beside an inconclusive call are fits to weak or partial responses and may not hold up. The source made the active and inactive calls. Calls come from the whole dose curve; as a rule, active = well fitted curve in the direction sought with a large enough effect; inconclusive = small, poorly fitted or top-dose-only effect, or another doubt; inactive = no such curve, though single readings can be large; an effect the other way counts as inactive or inconclusive.

Assays:
[1] = Quantitative High-Throughput drug screen in 47 multiple myeloma cell lines against the NCATS MIPE library collection: FR4_PLB cell viability assay (AID 1918924; note: nearly all actives have a fitted effect of over 35% in size)
Procedure, shortened: (§1)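 Steps: seed 500 cells per well; pin-transfer MIPE 4.0 library; incubate 48 h at 37C, 5% CO2, humidified; add CellTiter-Glo, 5 min room temperature; read luminescence.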

[2] = Quantitative High-Throughput drug screen in 47 multiple myeloma cell lines against the NCATS MIPE library collection: ARP1_JJKsccF8 cell viability assay (AID 1918928; note: nearly all actives have a fitted effect of over 40% in size)
Procedure, shortened: (§2)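 CellTiter-Glo luminescence after 48 h exposure gives viability, scaled between DMSO-only (100%) and media-only (0%) controls. Library compounds are pinned onto 500 myeloma cells per well, incubated at 37C with 5% CO2.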

[3] = Quantitative High-Throughput drug screen in 47 multiple myeloma cell lines against the NCATS MIPE library collection: ARD_JJKsccE7 cell viability assay (AID 1918929); conditions: ARD myeloma cell line viability, CellTiter-Glo, 48 h; viability: at 45.8 µM (top of the series)
Procedure, shortened: (§3)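 Viability readout: CellTiter-Glo luminescence following 5 min room-temperature incubation with reagent. Prior exposure: 48 h, 37C, humidified 5% CO2, 500 cells per well.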

[4] = Quantitative High-Throughput drug screen in 47 multiple myeloma cell lines against the NCATS MIPE library collection: Karpas620_DSMZ cell viability assay (AID 1918959); conditions: Karpas620 myeloma viability, CellTiter-Glo ATP luminescence, 48 h; viability (% of DMSO): at 45.8 µM (top of the series); note: nearly all actives have a fitted effect of over 30% in size
Procedure, shortened: as §1

[5] = Quantitative High-Throughput drug screen in 47 multiple myeloma cell lines against the NCATS MIPE library collection: Karpas417_ECACC cell viability assay (AID 1918961); conditions: Karpas417 myeloma viability, CellTiter-Glo ATP luminescence, 48 h; viability (% of DMSO): at 45.8 µM (top of the series)
Procedure, shortened: (§4)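 CellTiter-Glo luminescence (ATP) after 48 h compound exposure, 37C/5% CO2; 500 cells/well; MIPE 4.0 approved/investigational drugs pinned in; DMSO = 100%, media only = 0% viability.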

[6] = Quantitative High-Throughput drug screen in 47 multiple myeloma cell lines against the NCATS MIPE library collection: KHM11_PLB cell viability assay (AID 1918962); conditions: KHM11 myeloma cell viability, CellTiter-Glo ATP luminescence, 48 h; series mostly up to 45.8 µM; note: nearly all actives have a fitted effect of over 35% in size
Procedure, shortened: as §1

[7] = Quantitative High-Throughput drug screen in 47 multiple myeloma cell lines against the NCATS MIPE library collection: JIM1_ECACC cell viability assay (AID 1918964); conditions: JIM1 myeloma viability, CellTiter-Glo ATP luminescence, 48 h; viability (% of DMSO): at 45.8 µM (top of the series)
Procedure, shortened: as §3

[8] = Quantitative High-Throughput drug screen in 47 multiple myeloma cell lines against the NCATS MIPE library collection: JJN3_DSMZ cell viability assay (AID 1918966; note: nearly all actives have a fitted effect of over 50% in size); conditions: JJN3 myeloma cells viability, CellTiter-Glo ATP, 48 h; viability, % of DMSO: at 45.8 µM (top of the series)
Procedure, shortened: as §3

[9] = Quantitative High-Throughput drug screen in 47 multiple myeloma cell lines against the NCATS MIPE library collection: H1112_PLB cell viability assay (AID 1918967; note: nearly all actives have a fitted effect of over 30% in size)
Procedure, shortened: as §3

[10] = Quantitative High-Throughput drug screen in 47 multiple myeloma cell lines against the NCATS MIPE library collection: KMS27_JCRB cell viability assay (AID 1918970); conditions: KMS27 myeloma cells, CellTiter-Glo ATP viability, 48 h; viability (% of DMSO): at 45.8 µM (top of the series); note: nearly all actives have a fitted effect of over 30% in size
Procedure, shortened: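 Viability inhibition screen, 48 h compound exposure, luminescent ATP read-out.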

[11] = Quantitative High-Throughput drug screen in 47 multiple myeloma cell lines against the NCATS MIPE library collection: KMM1_JCRB cell viability assay (AID 1918960); conditions: KMM1 myeloma viability, CellTiter-Glo ATP luminescence, 48 h; viability (% of DMSO): at 45.8 µM (top of the series); note: nearly all actives have a fitted effect of over 30% in size
Procedure, shortened: as §2

[12] = Quantitative High-Throughput drug screen in 47 multiple myeloma cell lines against the NCATS MIPE library collection: JIM3_ECACC cell viability assay (AID 1918963; note: nearly all actives have a fitted effect of over 35% in size)
Procedure, shortened: as §1

[13] = Quantitative High-Throughput drug screen in 47 multiple myeloma cell lines against the NCATS MIPE library collection: AMO1_DSMZ cell viability assay (AID 1918927; note: nearly all actives have a fitted effect of over 30% in size)
Procedure, shortened: as §3

[14] = Quantitative High-Throughput drug screen in 47 multiple myeloma cell lines against the NCATS MIPE library collection: INA6_PLB cell viability assay (AID 1918965; note: nearly all actives have a fitted effect of over 55% in size); conditions: INA6 myeloma viability, CellTiter-Glo ATP luminescence, 48 h; viability (% of control): at 45.8 µM (top of the series)
Procedure, shortened: as §4

[15] = Quantitative High-Throughput drug screen in 47 multiple myeloma cell lines against the NCATS MIPE library collection: Karpas25_ECACC cell viability assay (AID 1918968; note: nearly all actives have a fitted effect of over 35% in size); conditions: Karpas25 myeloma viability, CellTiter-Glo ATP, 48 h; viability (% of control): at 45.8 µM (top of the series)
Procedure, shortened: as §3

[16] = Quantitative High-Throughput drug screen in 47 multiple myeloma cell lines against the NCATS MIPE library collection: EJM_DSMZ cell viability assay (AID 1918926; note: nearly all actives have a fitted effect of over 30% in size)
Procedure, shortened: as §3
Potency is the fitted concentration of half-maximal effect.

## N#CC(=C(N)Sc1ccccc1N)C(C#N)=C(N)Sc1ccccc1N
[1]
  Potency: active: 7.43 µM
[2]
  Potency: inconclusive: 23.5 µM [cytotoxic, partial curve, poor fit]
[3]
  Potency: active: 20.9 µM
[4]
  Potency: active: 16.6 µM
[5]
  Potency: inconclusive: 13.2 µM [cytotoxic, partial curve, poor fit]
[6]
  Potency: active: 0.662 µM
[7]
  Potency: active: 16.6 µM
[8]
  Potency: inconclusive: 6.62 µM [cytotoxic, partial curve, poor fit]
[9]
  Potency: inconclusive: 18.7 µM [cytotoxic, partial curve]
[10]
  Potency: active: 18.7 µM

## Cc1[nH]c(=O)c(C#N)cc1-c1ccncc1
[1]
  Potency: inconclusive: 0.59 µM [rising, full curve, poor fit]
[2]
  Potency: inconclusive: 0.105 µM [cytotoxic, full curve, poor fit]
[3]
  Potency: inconclusive: 37.2 µM [cytotoxic, single point]
[11]
  Potency: inconclusive: 37.2 µM [cytotoxic, single point]
[5]
  Potency: inconclusive: 0.0015 µM [cytotoxic, full curve, poor fit]
[6]
  Potency: inactive
[12]
  Potency: active: 18.7 µM
[7]
  Potency: inconclusive: 2.96 µM [cytotoxic, full curve, poor fit]
[8]
  Potency: inconclusive: 0.0066 µM [rising, full curve, poor fit]
[9]
  Potency: inconclusive: 16.6 µM [cytotoxic, partial curve, poor fit]

## CC(=Cc1ccccc1)C=C1SC(=S)N(CC(=O)O)C1=O
[1]
  Potency: inactive
[13]
  Potency: inactive
[2]
  Potency: inconclusive: 0.0418 µM [rising, full curve, poor fit]
[3]
  Potency: inactive
[4]
  Potency: inconclusive: 18.7 µM [cytotoxic, partial curve, poor fit]
[5]
  Potency: inactive
[6]
  Potency: inactive
[7]
  Potency: inconclusive: 3.72 µM [cytotoxic, full curve, poor fit]
[14]
  Potency: inactive
[8]
  Potency: inconclusive: 0.0037 µM [cytotoxic, full curve, poor fit]
[15]
  Potency: inactive

## CC(C)(C)COc1ccc(-n2cc(C(=O)O)cn2)cc1C#N
[1]
  Potency: inactive
[2]
  Potency: inactive
[3]
  Potency: inactive
[11]
  Potency: inactive
[5]
  Potency: inconclusive: 52.6 µM [rising, partial curve, poor fit]
[6]
  Potency: inactive
[7]
  Potency: inconclusive: 2.96 µM [cytotoxic, full curve, poor fit]
[14]
  Potency: inactive
[8]
  Potency: inactive
[9]
  Potency: inactive
[15]
  Potency: inconclusive: 10.5 µM [cytotoxic, partial curve, poor fit]
[10]
  Potency: inactive

## Cc1cccc(C#Cc2ccccc2)n1
[1]
  Potency: inactive
[13]
  Potency: inactive
[3]
  Potency: inconclusive: 8.33 µM [cytotoxic, single point]
[5]
  Potency: inconclusive: 3.72 µM [cytotoxic, full curve, poor fit]
[6]
  Potency: inconclusive: 2.64 µM [cytotoxic, full curve, poor fit]
[7]
  Potency: inconclusive: 0.059 µM [rising, full curve, poor fit]
[8]
  Potency: inconclusive: 16.6 µM [cytotoxic, partial curve, poor fit]
[10]
  Potency: inactive

## CN1CCC(=C2c3ccccc3CCc3sccc32)CC1
[1]
  Potency: inactive
[13]
  Potency: inconclusive: 20.9 µM [cytotoxic, partial curve]
[3]
  Potency: inconclusive: 23.5 µM [cytotoxic, single point]
[4]
  Potency: inconclusive: 37.2 µM [cytotoxic, single point]
[11]
  Potency: inconclusive: 0.0013 µM [rising, full curve, poor fit]
[5]
  Potency: inconclusive: 0.372 µM [rising, full curve, poor fit]
[6]
  Potency: inconclusive: 37.2 µM [cytotoxic, single point]
[12]
  Potency: inconclusive: 26.4 µM [cytotoxic, single point]
[7]
  Potency: inconclusive: 23.5 µM [cytotoxic, partial curve, poor fit]
[8]
  Potency: inconclusive: 7.43 µM [cytotoxic, full curve, poor fit]
[15]
  Potency: inconclusive: 23.5 µM [cytotoxic, single point]
[10]
  Potency: inconclusive: 16.6 µM [cytotoxic, partial curve, poor fit]

## COc1cc2nc(N3CCN(C(=O)C4CCCO4)CC3)nc(N)c2cc1OC (configuration not stated)
[1]
  Potency: inconclusive: 0.0469 µM [cytotoxic, full curve, poor fit]
[13]
  Potency: inconclusive: 37.2 µM [cytotoxic, single point]
[2]
  Potency: inconclusive: 0.833 µM [cytotoxic, full curve, poor fit]
[3]
  Potency: inconclusive: 23.5 µM [cytotoxic, partial curve, poor fit]
[11]
  Potency: inconclusive: 26.4 µM [cytotoxic, single point]
[6]
  Potency: inactive
[7]
  Potency: inconclusive: 0.235 µM [cytotoxic, full curve, poor fit]
[14]
  Potency: inactive
[8]
  Potency: inactive
[9]
  Potency: inactive
[15]
  Potency: inactive
[10]
  Potency: inconclusive: 0.0935 µM [cytotoxic, full curve, poor fit]

## Nc1ncnc2c1ncn2[C@@H]1O[C@@H](CO)[C@H](O)[C@H]1O
[1]
  Potency: inconclusive: 8.33 µM [rising, single point]
[2]
  Potency: inactive
[11]
  Potency: inconclusive: 0.0009 µM
[5]
  Potency: inactive
[6]
  Potency: inconclusive: 3.32 µM [rising, full curve, poor fit]
[7]
  Potency: inactive
[14]
  Potency: inactive
[8]
  Potency: inconclusive: 0.0094 µM [rising, full curve]
[10]
  Potency: inactive

## CNCC[C@H](Oc1cccc2ccccc12)c1cccs1
[1]
  Potency: active: 3.72 µM
[16]
  Potency: active: 0.935 µM
[5]
  Potency: inconclusive: 37.2 µM [cytotoxic, partial curve, poor fit]
[8]
  Potency: inconclusive: 18.7 µM [cytotoxic, partial curve]
[9]
  Potency: active: 2.35 µM

## CNC(=O)c1ccc(C)c(-n2c(C)cc(OCc3ccc(F)cc3F)c(Br)c2=O)c1
[1]
  Potency: inconclusive: 0.0013 µM [cytotoxic, full curve, poor fit]
[2]
  Potency: inconclusive: 29.6 µM [cytotoxic, single point]
[3]
  Potency: inconclusive: 16.6 µM [cytotoxic, partial curve]
[4]
  Potency: inconclusive: 18.7 µM [cytotoxic, partial curve]
[11]
  Potency: active: 4.69 µM
[5]
  Potency: inconclusive: 20.9 µM [cytotoxic, partial curve, poor fit]
[6]
  Potency: inconclusive: 37.2 µM [cytotoxic, single point]
[7]
  Potency: active: 23.5 µM
[8]
  Potency: inconclusive: 20.9 µM [cytotoxic, partial curve, poor fit]
[10]
  Potency: inconclusive: 20.9 µM [cytotoxic, partial curve, poor fit]

## CN1CCN(C2=Nc3cc(Cl)ccc3Nc3ccccc32)CC1
[1]
  Potency: inactive
[13]
  Potency: inconclusive: 20.9 µM [cytotoxic, partial curve, poor fit]
[3]
  Potency: inconclusive: 33.2 µM [cytotoxic, single point]
[4]
  Potency: inconclusive: 20.9 µM [cytotoxic, single point]
[5]
  Potency: inconclusive: 0.0015 µM [cytotoxic, full curve, poor fit]
[6]
  Potency: inconclusive: 6.62 µM [rising, single point]
[12]
  Potency: inconclusive: 20.9 µM [cytotoxic, single point]
[7]
  Potency: inactive
[14]
  Potency: inconclusive: 26.4 µM [cytotoxic, partial curve, poor fit]
[8]
  Potency: inconclusive: 1.66 µM [cytotoxic, full curve, poor fit]
[9]
  Potency: inconclusive: 37.2 µM [cytotoxic, single point]
[10]
  Potency: inactive

## NC(=O)Cc1cccc(C(=O)c2ccccc2)c1N
[1]
  Potency: inconclusive: 23.5 µM [cytotoxic, single point]
[2]
  Potency: inconclusive: 3.32 µM [cytotoxic, full curve, poor fit]
[5]
  Potency: inconclusive: 37.2 µM [rising, partial curve, poor fit]
[6]
  Potency: inactive
[7]
  Potency: inconclusive: 0.0012 µM [rising, full curve, poor fit]
[14]
  Potency: inactive
[8]
  Potency: inconclusive: 33.2 µM [cytotoxic, single point]
[9]
  Potency: inconclusive: 2.96 µM [cytotoxic, partial curve, poor fit]
[15]
  Potency: inconclusive: 7.43 µM [cytotoxic, partial curve, poor fit]

## O=C1c2ccccc2-[n+]2ccc3c([nH]c4ccccc43)c21
[1]
  Potency: active: 1.32 µM
[11]
  Potency: active: 3.72 µM
[7]
  Potency: active: 3.72 µM
[14]
  Potency: active: 1.18 µM
[10]
  Potency: active: 2.64 µM

## O=c1c(O)c(-c2ccc(O)c(O)c2)oc2cc(O)cc(O)c12
[1]
  Potency: inconclusive: 37.2 µM [cytotoxic, single point]
[13]
  Potency: inconclusive: 18.7 µM [cytotoxic, partial curve]
[2]
  Potency: inconclusive: 29.6 µM [cytotoxic, single point]
[3]
  Potency: inconclusive: 33.2 µM [cytotoxic, single point]
[4]
  Potency: inconclusive: 23.5 µM [cytotoxic, partial curve]
[11]
  Potency: inconclusive: 26.4 µM [cytotoxic, single point]
[5]
  Potency: active: 0.0166 µM
[6]
  Potency: inconclusive: 0.418 µM [rising, full curve, poor fit]
[12]
  Potency: inconclusive: 18.7 µM [cytotoxic, partial curve]
[7]
  Potency: inconclusive: 10.5 µM [cytotoxic, partial curve, poor fit]
[8]
  Potency: inconclusive: 0.0042 µM [rising, full curve, poor fit]
[10]
  Potency: inconclusive: 7.43 µM [cytotoxic, partial curve, poor fit]
